In PMC5115890:
These are yes or no findings as the source states them, for the method shown. Binding seen in cells or lysates may run through a third protein. Some entries that bind do so weakly or less than the wild type.

Protein sequences, listed by entry. Tags and fused reporters are not part of them.
UniProt Q8N6T7: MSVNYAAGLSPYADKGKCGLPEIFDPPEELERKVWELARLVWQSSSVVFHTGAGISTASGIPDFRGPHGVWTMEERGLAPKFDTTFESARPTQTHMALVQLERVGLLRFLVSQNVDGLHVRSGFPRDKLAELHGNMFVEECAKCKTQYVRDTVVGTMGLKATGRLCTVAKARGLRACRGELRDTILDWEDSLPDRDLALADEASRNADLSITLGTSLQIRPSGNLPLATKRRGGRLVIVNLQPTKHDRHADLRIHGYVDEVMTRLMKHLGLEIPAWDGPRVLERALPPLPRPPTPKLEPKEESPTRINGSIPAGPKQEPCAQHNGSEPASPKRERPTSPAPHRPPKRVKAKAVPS
UniProt P46527: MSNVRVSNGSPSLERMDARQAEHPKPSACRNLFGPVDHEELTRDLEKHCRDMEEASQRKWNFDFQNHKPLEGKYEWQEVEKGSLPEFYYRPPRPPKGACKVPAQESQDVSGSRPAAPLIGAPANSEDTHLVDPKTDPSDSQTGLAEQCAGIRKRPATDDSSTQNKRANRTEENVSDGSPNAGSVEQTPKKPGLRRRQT

Legend:
GST-SIRT6 = GST-SIRT6 (UniProt Q8N6T7); test: pull-down; purified GST fusion immobilised on glutathione-conjugated sepharose beads, incubated with in vitro transcribed/translated protein for 4 h at 4°C; Western blot; only the target purified
flag-SIRT6 [1] = target: flag-SIRT6 (UniProt Q8N6T7); test: co-IP; 293 cells co-transfected with flag-SIRT6 and myc-p27; IP with flag antibody; lysis buffer 25 mM Tris-HCl pH 7.4, 150 mM NaCl, 1% Nonidet P-40, 1 mM EDTA, 5% glycerol
GST-p27 = GST-p27 (UniProt P46527); test: pull-down; purified GST fusion immobilised on glutathione-conjugated sepharose beads, incubated with in vitro transcribed/translated protein for 4 h at 4°C; Western blot; only the target purified
flag-SIRT6 [2] = target: flag-SIRT6 (UniProt Q8N6T7); test: co-IP; 293 cells transfected with flag-SIRT6 or flag-ΔSIRT6; IP with flag antibody; blots with flag and p27 antibody
[3] = target: SIRT6 (Sirtuin6), endogenous (human (endogenous in HEK293)) (UniProt Q8N6T7); test: co-IP; endogenous SIRT6 and p27 in 293 cells; lysis buffer 25 mM Tris-HCl pH 7.4, 150 mM NaCl, 1% Nonidet P-40, 1 mM EDTA, 5% glycerol; antibody overnight at 4°C

in vitro transcribed and translated p27 (from UniProt P46527 1-198)
binding (GST-SIRT6): binds

myc-p27 (from UniProt P46527 1-198)
binding (flag-SIRT6 [1]): binds

in vitro transcribed and translated SIRT6 (from UniProt Q8N6T7 1-355)
binding (GST-p27): binds

p27Kip1 (p27), endogenous (from UniProt P46527 1-198)
binding (flag-SIRT6 [2]): binds
binding [3]: binds
